In patent US20050287664A1 (published 2005):
No constants are given. Whether binding was seen depends on the method and setting. Some binding calls cover weakened binding; strength is not graded here. Tags and fused reporters may be left off the sequences shown.

Chains of the proteins cited; added tags and fusions are not shown. Residues count along the entry.
UniProt Q99KV1, residues 23-358: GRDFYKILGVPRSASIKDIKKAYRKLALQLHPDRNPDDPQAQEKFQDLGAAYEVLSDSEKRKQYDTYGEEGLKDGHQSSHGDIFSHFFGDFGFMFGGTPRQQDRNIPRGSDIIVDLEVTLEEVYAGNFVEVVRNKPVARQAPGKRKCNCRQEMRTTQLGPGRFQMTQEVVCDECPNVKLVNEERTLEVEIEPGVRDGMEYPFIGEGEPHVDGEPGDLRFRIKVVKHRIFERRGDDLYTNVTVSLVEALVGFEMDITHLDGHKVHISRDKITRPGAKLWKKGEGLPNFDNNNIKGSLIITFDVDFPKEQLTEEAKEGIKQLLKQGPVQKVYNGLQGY

Target: C-terminal His-myc-tagged HEDJ/ERdj3 protein secreted from pHEDJ-transfected HEK293T cells (mouse) (UniProt Q99KV1)
Experiment: stated with the R1 colony competition assay

B1: Fc-tagged SD extracellular domain (SDe-Fc) (Fc fusion, not shown: a dimerising Fc or GST)
chain: QDATVTRKDPVFLDCQAHGEGPIKVTWLKNGAKLSENKRIQVLSNGSLYISEAEGRRGEQSDEGFYQCLAVNKYGAILSQKAHLTLSTISAFEVHPVSTEVPEGGVARFSCKISSTPPAVITWEFNRTALPMTMDSRVTALPSGVLQIYDAGPEDAGKYRCVAATHAHKRKSMEASLTIVPANETRSFYMPTIIASPQNVTASLHQTVVLECMATGYPKPIISWSRLDHKSIDVFNTRVLGNGNLIISDVKLQHAGVYVCRATTPGTRNFTVAMATLTVLAPPSFVEWPESLTRPRAGTARFVCQAEGIPSPKMSWLKNGRRIHSNGRIKMYNSKLVINQIIPEDDAIYQCMAENSQGSVLSRARLTVVMSEDRPSAPYNVHAETMSSSAILLAWERPLYNSDKVIAYSVHYMKAEGLNNEEYQVVLGNDTTHYIIDDLEPDSNYTFYIVAYMPMGASQMSDHVTQNTLEDVPLRPPEISLTSRSPTDILISWLPIPAKYRRGQVVLYRLSFRLSTENSIQVVELPGTVHEYLLEGLEPDSVYLVRITAATRVGLGESSVWTSHRTPKATSVKAPKSPELHLEPLNCTTISVRWLQDTEDPAAIRGYKLFYKEEGQQEHGPIFLDTGDLLYTLSGLDPRRKYHVRLLAYNNLEDGYQADQTVSTPGCVSVRDRMVPPPPPPHHLYAKANTSSSIFLHWRRPAFTTAQVINYTIRCNPVGLQNASLVLYLQTSETHMLVQGLEPNTKYEFAVRLHVDQLSSPWSPVVYHTTLPEAPTGPPVGVKVTLIEDDTALVSWKPPDGPETVVTRYTILYASRKAWIAGEWQVLHREGAITMALLENLVAGNVYIVKISASNEVGEGPFPNSVELAVLPKDASESNQRPKRLDSSDAKVYSG
binding: binds
